Reference: publication PMC12720080
Results are given in words; binding and its absence hold for the method and conditions named. Binding seen in cells or lysates may run through a third protein. For some of these results: Binding can be weak; no strength is given. Sequences can lack the tags named with a protein.

Key:
Assay in all cases: co-IP; HEK293T (WT or tmem127-/-) co-transfected; post-nuclear supernatant on GFP beads 2 h at 4 °C (GFP-SteD as bait); lysis 0.5% Triton-X-100, 150 mM NaCl, 50 mM Tris-Cl pH 7.4, 5 mM EDTA, 5% glycerol; immunoblot
[1] = target: GFP-SteD 1-102 (Salmonella enterica)
[2] = target: GFP-SteD 37-111 (Salmonella enterica)
[3] = target: GFP-SteD 37-102 (Salmonella enterica)
[4] = target: GFP-SteD 1-41 (Salmonella enterica)

B1: FLAG-TMEM127 (wild type) (protein, UniProt O75204 1-238)
chain: MYAPGGAGLPGGRRRRSPGGSALPKQPERSLASALPGALSITALCTALAEPAWLHIHGGTCSRQELGVSDVLGYVHPDLLKDFCMNPQTVLLLRVIAAFCFLGILCSLSAFLLDVFGPKHPALKITRRYAFAHILTVLQCATVIGFSYWASELILAQQQQHKKYHGSQVYVTFAVSFYLVAGAGGASILATAANLLRHYPTEEEEQALELLSEMEENEPYPAEYEVINQFQPPPAYTP
For B1, which binding [1] is on record?
The binding was “binds”.

What about the binding [2] of the same binder?
Its binding is “binds”.

And the binding [3]?
Its binding is “binds weakly”.

And the binding [4]?
The binding was “no binding”.
